Experimental findings from PMC6375841 are described below.

Sequences of proteins named here, by UniProt entry; tags and fusion partners are left off. A change or cut given only in a name is not applied to a line headed by its entry. Residues count along the entry.
UniProt Q16620, residues 32-430: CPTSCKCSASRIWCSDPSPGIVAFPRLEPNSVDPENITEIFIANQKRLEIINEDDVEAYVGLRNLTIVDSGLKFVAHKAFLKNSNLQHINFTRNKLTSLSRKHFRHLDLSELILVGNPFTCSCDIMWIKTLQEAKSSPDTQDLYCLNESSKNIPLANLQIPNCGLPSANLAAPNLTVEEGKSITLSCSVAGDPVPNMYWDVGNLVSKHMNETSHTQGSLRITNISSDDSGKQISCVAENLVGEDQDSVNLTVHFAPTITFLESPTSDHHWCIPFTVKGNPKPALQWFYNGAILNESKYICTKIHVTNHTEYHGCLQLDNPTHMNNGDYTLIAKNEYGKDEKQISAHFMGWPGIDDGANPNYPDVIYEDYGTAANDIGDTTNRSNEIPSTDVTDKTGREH
UniProt P07174, residues 30-425: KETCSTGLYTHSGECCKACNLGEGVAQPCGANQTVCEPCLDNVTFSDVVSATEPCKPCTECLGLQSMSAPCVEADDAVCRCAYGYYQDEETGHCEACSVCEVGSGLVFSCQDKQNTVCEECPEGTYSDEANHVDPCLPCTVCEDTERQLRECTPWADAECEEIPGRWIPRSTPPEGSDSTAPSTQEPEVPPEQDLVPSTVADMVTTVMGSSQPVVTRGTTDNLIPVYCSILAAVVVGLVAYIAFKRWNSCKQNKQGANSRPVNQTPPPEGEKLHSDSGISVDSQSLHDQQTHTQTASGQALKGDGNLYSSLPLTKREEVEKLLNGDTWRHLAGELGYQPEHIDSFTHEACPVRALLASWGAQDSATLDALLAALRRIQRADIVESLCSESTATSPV

Results are given in words; binding and its absence hold for the method and conditions named. Binding seen in cells or lysates may run through a third protein. Some binding calls cover weakened binding; strength is not graded here.

Assay [1] deals with T1, proBDNF (rat (endogenous in hippocampal neuron cultures and hippocampus)) (UniProt P23363).
T1 sequence: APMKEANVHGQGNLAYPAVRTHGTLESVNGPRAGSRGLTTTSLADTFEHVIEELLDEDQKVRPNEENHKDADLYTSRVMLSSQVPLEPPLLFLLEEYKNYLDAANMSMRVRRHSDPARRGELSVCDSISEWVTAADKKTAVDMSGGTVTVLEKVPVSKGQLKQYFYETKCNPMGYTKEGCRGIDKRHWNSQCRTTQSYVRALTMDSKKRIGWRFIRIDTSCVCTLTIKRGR
Briefly: co-IP; hippocampus homogenates (modified RIPA buffer, 500 μg total protein) immunoprecipitated with 2 μg anti-proBDNF antibody at 4°C overnight, Protein A/G PLUS-agarose; Western blot with anti-p75NTR; control and SE animals, TrkB-Fc-infused (ipsilateral) and non-infused (contralateral) sides. A general note: In western blotting, separated proteins are transferred to a membrane and probed.

Assay [2] concerns the target recombinant human TrkB-Fc chimera protein (human) (UniProt Q16620). Briefly: condition: 2 μg TrkB-Fc with 500 μg of total protein; co-IP; homogenates of control and SE hippocampus (500 μg total protein, modified RIPA buffer, pre-cleared) mixed with 2 μg TrkB-Fc at 4°C overnight, TrkB-Fc precipitated with Protein A/G PLUS-agarose; Western blots probed for matBDNF and proBDNF; only the target purified.

For “p75 NT receptor (p75NTR) (from UniProt P07174 30-425)”, the binding result in assay [1] is on record as “binds”.

B1: proBDNF (protein, UniProt P23363 19-249)
chain: T1 sequence
Turning to B1, the binding entry in assay [2] is given as “no binding”.
